In PubChem BioAssay AID493014 (National Center for Advancing Translational Sciences (NCATS), 2011):
The other results are listed elsewhere or left out. Further columns of the screen follow, without active or inactive calls. Compounds called inactive in the main read-out are mostly missing here. Words in brackets tell the shape of the fitted curve; partial curves, single points and poor fits give uncertain potencies.

Assay: qHTS Assay to Find Inhibitors of Chronic Active B-Cell Receptor Signaling
Settings: ABC-DLBCL IkBa-CBG/CBR reporter, luminescence ratio (green luciferase fused to IkBa over red control in TMD8 lymphoma cells), 4 h
Summary of the method: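 Doxycycline induced both beetle luciferases in TMD8 lymphoma cells; IKK-driven degradation limits the IkappaBalpha-fused green signal, while red luminescence normalises for cell number and nonspecific effects. Compounds tested up to 46 uM, 4 hrs.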

[1] = measured here: CBR red luminescence, cell number

SMILES | AC50 [1] | AC50 (measured here: IkBa-CBG green luminescence)
COc1ccccc1C(=O)NNC(=O)c1cccc([N+](=O)[O-])c1 | 35.5 µM [falling, single point] | 
COc1ccccc1NC(=O)CSc1ccc2nnc(-c3cccnc3)n2n1 | 11.6 µM [falling, partial curve] | 
Cc1cc(OCC(=O)Nc2ccc(Br)cc2)cc2c1C(=O)CC(C)(C)O2 | 20 µM [falling, single point] | 
COC(=O)c1ccc(NC(=O)c2sc3nc(-c4ccccc4)cn3c2C)cc1 | 1.78 µM [falling, partial curve, poor fit] | 
O=C(Cc1c(O)c2ccccc2[nH]c1=O)NCc1cccc(F)c1 | 2.24 µM [rising, partial curve, poor fit] | 
Cc1cc(C(=O)CSc2nc(N)cc(=O)[nH]2)c(C)n1CCc1ccc(F)cc1 | 28.2 µM [falling, partial curve, poor fit] | 
COc1ccc(CCNC(=O)c2ccc(CS(=O)(=O)Cc3cccc(C)c3)o2)cc1OC | 7.94 µM [rising, partial curve, poor fit] | 
O=C(NC1CCSc2ccccc21)c1c(F)cccc1Cl (stereo unspecified) | 5.62 µM [falling, single point] | 
CN1CCN(c2nc(-c3ccccc3)nc(-c3ccccc3)c2C#N)CC1 | 25.1 µM [rising, single point] | 
Cc1nnc(OC(C)C)c2nn(-c3ccccc3F)c(C)c12 | 2.91 µM [rising, full curve, poor fit] | 
CCCCCCSc1ccc([C@H]2N[C@@](Cc3ccccc3)(C(=O)OC)[C@H]3C(=O)N(C)C(=O)[C@@H]23)cc1OC | 23.1 µM [rising, partial curve, poor fit] | 
COc1cc(C=C(c2nc3ccccc3s2)c2nc3ccccc3s2)ccc1O | 18.4 µM [falling, single point] | 
O=C(N/N=C/c1cc(Br)cs1)c1ccccc1[N+](=O)[O-] | 5.17 µM [falling, partial curve] | 
CCN(C(=O)CCN1C(=O)/C(=C/c2ccccc2)SC1=S)C1CCS(=O)(=O)C1 (stereo unspecified) | 17.8 µM [falling, single point] | 
COc1ccc(C2NCCc3c2[nH]c2ccccc32)cc1CN1CCc2cc(OC)c(OC)cc2C1C (stereo unspecified) | 17.8 µM [falling, single point] | 
CC(=O)c1cc2c(cc1NC(=O)CSc1nc3ccc(C)cc3[nH]1)OCO2 | 20.6 µM [falling, partial curve] | 
COc1ccc(OC)c(NC(=O)Cn2c(C)nc3ccccc3c2=O)c1 | 11.2 µM [falling, partial curve] | 
CCC(C)Nc1nc(-c2ccccn2)nc2ccccc12 (stereo unspecified) | 35.5 µM [falling, single point] | 
CCOC(=O)c1c(NC(=S)NC(=O)c2ccc(Cn3cc(Cl)cn3)o2)sc2c1CCCCC2 | 3.98 µM [falling, single point] | 
CCn1c(O)c(/C=N/NC(=O)c2ccncc2)c(=O)n(CC)c1=S | 10.3 µM [falling, partial curve, poor fit] | 

SMILES | AC50 [1] | AC50 (measured here: IkBa-CBG green luminescence)
O=[N+]([O-])c1cc(C(F)(F)F)ccc1NCCNC(=S)Nc1ccc(Cl)cc1 | 20 µM [falling, single point] | 
COc1ccc(C2=NN(C(=O)c3cccs3)C(c3ccc(OC)cc3)C2)cc1 (stereo unspecified) | 18.4 µM [falling, partial curve] | 
O=S(=O)(c1cc(F)ccc1F)N1CCN(c2ncnc3ccccc23)CC1 | 25.9 µM [falling, single point] | 25.9 µM [falling, single point]
C=CCOC(=O)C1=C(C)NC(SCC(N)=O)=C(C#N)C1c1cccs1 (stereo unspecified) | 10.3 µM [falling, partial curve, poor fit] | 
c1ccc2c(c1)ccc1nnc(SCc3ccc4c(c3)OCO4)n12 | 18.4 µM [rising, single point] | 
C/C(=C\c1ccc(Br)cc1)C(=O)c1c(C)cc(C)[nH]c1=O | 11.2 µM [falling, partial curve, poor fit] | 
CC(C)Cn1c(N)c(C(=O)COC(=O)c2ccc(Br)cc2)c(=O)n(C)c1=O | 0.517 µM [rising, full curve] | 
N#CC1=C(N)NC(SCC(=O)c2ccc(Cl)cc2)=C(C#N)C12CCCC2 | 29.1 µM [falling, single point] | 
CCS(=O)(=O)c1ccc(O)c(NC(=O)COc2ccc(Cl)cc2)c1 | 35.5 µM [falling, single point] | 
CCc1ccc(NC(=O)N2CCc3ccccc3C2)cc1 | 0.447 µM [rising, partial curve, poor fit] | 
CN(C)c1ccc(CC2C(=O)Nc3ccccc32)cc1 (stereo unspecified) | 15.8 µM [falling, partial curve] | 
O=C(N[C@H]1/C=C\[C@@H](O)CCCC1)OCc1ccccc1 | 6.51 µM [rising, partial curve, poor fit] | 
COc1cc(O)c(C(CCN2CCN(c3ccccc3)CC2)c2ccc(N(C)C)cc2)c(OC)c1 (stereo unspecified) | 35.5 µM [falling, single point] | 
CC1CCC(NC(=O)c2cc3ccccc3cc2O)CC1 (stereo unspecified) | 29.1 µM [falling, single point] | 
COC(=O)C1(C#N)C(c2ccccc2)C1(C(=O)OC)C(=O)OC (stereo unspecified) | 29.1 µM [rising, single point] | 
Cc1ccc(OCC(=O)Nc2ccc3c4c(cccc24)CC3)c(C)c1 | 3.26 µM [rising, single point] | 
CC(CN1CCN(c2ccccc2)CC1)c1ccccc1 (stereo unspecified) | 7.94 µM [rising, partial curve, poor fit] | 
Cc1sc2ncnc(N3CCC(C(=O)Nc4ccc(OC(F)F)c(Cl)c4)CC3)c2c1C | 29.1 µM [falling, single point] | 
Clc1ccc2oc(-c3cccnc3)nc2c1 | 2.82 µM [rising, full curve] | 
Cc1cc(N2C(=O)C(O)=C(C(=O)c3ccc(C)o3)C2c2cccs2)no1 (stereo unspecified) | 1.03 µM [falling, full curve, poor fit] | 

Quoted from the listing.
AC50 [1], `COc1ccc(C2=NN(C(=O)c3cccs3)C(c3ccc(OC)cc3)C2)cc1` (stereo unspecified) reads 18.4 µM [falling, partial curve]
AC50 [1], `Cc1cc(N2C(=O)C(O)=C(C(=O)c3ccc(C)o3)C2c2cccs2)no1` (stereo unspecified) reads 1.03 µM [falling, full curve, poor fit]
AC50 [1], `O=[N+]([O-])c1cc(C(F)(F)F)ccc1NCCNC(=S)Nc1ccc(Cl)cc1` reads 20 µM [falling, single point]
